This is one part of the list. Many values rest on one well or one pass, so single values are uncertain.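 Cells were imaged in 1,536-well plates, and nuclei stained with an antibody against cleaved PARP were counted against all DNA-stained nuclei to give the apoptosis fraction. Screening doses were chosen to leave most cells alive, and resting and induced cleaved-PARP levels differ strongly between cell lines.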

Test systems include MZ2-MEL; MeWo; RPMI7951; RVH-421; SkMel28; SkMel2; SkMel30; SkMel5; UACC257; UACC62.
Common to all, as to assay: cleaved PARP positive nuclei fraction relative to DMSO control; melanoma cells; higher = more apoptosis
Details in all cases: library dose: low library concentration; 72 h

With `Cc1cc(N2CCOCC2)cc2[nH]c(-c3c(NC[C@@H](O)c4cccc(Cl)c4)cc[nH]c3=O)nc12` + O=C(Nc1cccc(Cl)c1)Nc1ncc(CCNc2ncnc3ccsc23)s1 [SNS314] (first compound 0.2 µM, partner dose 0.0008 µM), the “cleaved PARP positive nuclei fraction” value was 122% in the assay on MZ2-MEL; 118% in the assay on MeWo; 140% in the assay on RPMI7951; 39.5% in the assay on RVH-421; 43.1% with SkMel28; 94.8% in the assay with SkMel2. In addition, the “cleaved PARP positive nuclei fraction” value in the assay on SkMel30 was determined as 71.4%; with SkMel5 it was 37.6%; in the assay with UACC257 it was 122%; with UACC62, 87.8%.

Regarding `NC(=O)Nc1cc(-c2cccc(F)c2)sc1C(=O)N[C@H]1CCCNC1` + CN(C)S(=O)(=O)c1ccc2c(c1)/C(=C/c1cc3c([nH]1)CCCC3)C(=O)N2 [SU6656] (first compound 0.02 µM, partner dose 0.4 µM), the “cleaved PARP positive nuclei fraction” value was found to be 93.6% with MZ2-MEL; 37.3% with MeWo; 65.4% with RPMI7951; 104% in the assay with RVH-421; 90% in the assay on SkMel28; 30.5% in the assay on SkMel2. In addition, the “cleaved PARP positive nuclei fraction” value turned out to be 187% in the assay with SkMel30, 70.8% in the assay on SkMel5, 114% in the assay with UACC257 and 105% in the assay on UACC62.

As to `Cn1cncc1[C@@](N)(c1ccc(Cl)cc1)c1ccc2c(c1)c(-c1cccc(Cl)c1)cc(=O)n2C` [tipifarnib] + CN(NC(=O)CC(=O)NN(C)C(=S)c1ccccc1)C(=S)c1ccccc1 [STA4783] (first compound 0.01 µM, partner dose 0.006 µM), the “cleaved PARP positive nuclei fraction” value was determined as 102% with MZ2-MEL; 38.6% with MeWo; 154% with RPMI7951; 177% in the assay on RVH-421; 74.9% in the assay with SkMel28; 127% in the assay on SkMel2. Further, the “cleaved PARP positive nuclei fraction” value in the assay on SkMel30 came out at 59.5%; in the assay on SkMel5, 151%; in the assay on UACC257 it was 234%; in the assay with UACC62, 170%.

`C#Cc1cccc(Nc2ncnc3cc(OCCOC)c(OCCOC)cc23)c1` [erlotinib] + Cc1ccc(NC(=O)c2cccc(N(C)C)c2)cc1NC(=O)c1ccc(O)cc1 [ZM336372] (first compound 0.8 µM, partner dose 2 µM): the “cleaved PARP positive nuclei fraction” value is 52.6% in the assay with MZ2-MEL; 92.4% in the assay on MeWo; 152% in the assay with RPMI7951; 148% with RVH-421; 37.8% in the assay with SkMel28; 69.9% with SkMel2. In addition, the “cleaved PARP positive nuclei fraction” value in the assay with SkMel30 came to 77.3%; in the assay with SkMel5, 107%; with UACC257, 61.8%; in the assay on UACC62, 56%.

Consider `C=CCNC1=C2C[C@@H](C)C[C@H](OC)[C@H](O)[C@@H](C)/C=C(\C)[C@H](OC(N)=O)[C@@H](OC)/C=C\C=C(/C)C(=O)NC(=CC1=O)C2=O` [Tanespimycin] + COc1cc2ncnc(Nc3ccc(Oc4ccccc4)cc3)c2cc1OC [SrcI1] (first compound 0.002 µM, partner dose 2 µM), for which the “cleaved PARP positive nuclei fraction” value is 55.3% in the assay on MZ2-MEL; 70.8% in the assay on MeWo; 21.7% in the assay on RPMI7951; 174% in the assay on RVH-421; 138% in the assay with SkMel28; 96.4% in the assay with SkMel2. In addition, the “cleaved PARP positive nuclei fraction” value amounted to 452% with SkMel30, 34.6% in the assay with SkMel5, 55.5% with UACC257 and 79.4% in the assay on UACC62.

As for `COCC[n+]1c2c(n(Cc3cnccn3)c1C)C(=O)c1ccccc1C2=O` + C[C@@H]1CCN(C(=O)CC#N)C[C@@H]1N(C)c1ncnc2[nH]ccc12 [CP690550] (first compound 0.0004 µM, partner dose 1 µM), the “cleaved PARP positive nuclei fraction” value with MZ2-MEL is 235%; in the assay on MeWo, 131%; in the assay with RPMI7951 it was 126%; in the assay with RVH-421 it was 227%; in the assay with SkMel28, 302%; with SkMel2 it was 134%. The “cleaved PARP positive nuclei fraction” value in the assay on SkMel30 was 1940%; in the assay with SkMel5, 1150%; in the assay with UACC257, 41.3%; in the assay on UACC62 it was 138%.

`C=CCNC1=C2C[C@@H](C)C[C@H](OC)[C@H](O)[C@@H](C)/C=C(\C)[C@H](OC(N)=O)[C@@H](OC)/C=C\C=C(/C)C(=O)NC(=CC1=O)C2=O` [Tanespimycin] + COc1ccc2c(c1)CCC1C2CCC2(C)C(NCCCCCCN3C(=O)C=CC3=O)CCC12 [U73122] (first compound 0.002 µM, partner dose 0.4 µM): the “cleaved PARP positive nuclei fraction” value in the assay with MZ2-MEL was 89.4%; with MeWo, 219%; in the assay with RPMI7951 it was 284%; in the assay on RVH-421, 153%; with SkMel28, 125%; with SkMel2 it was 17.1%. For the same molecule, the “cleaved PARP positive nuclei fraction” value in the assay on SkMel30 is 163%; with SkMel5, 80.1%; with UACC257, 61.8%; with UACC62, 65.3%.

For the molecule `Cn1nnc2c(C(N)=O)ncn2c1=O` [temozolomide] + C[C@@H]1CCN(C(=O)CC#N)C[C@@H]1N(C)c1ncnc2[nH]ccc12 [CP690550] (first compound 2 µM, partner dose 1 µM), the “cleaved PARP positive nuclei fraction” value with MZ2-MEL came out at 124%; with MeWo, 182%; with RPMI7951, 35.9%; in the assay on RVH-421 it was 143%; in the assay with SkMel28 it was 43.8%; with SkMel2, 109%. In addition, the “cleaved PARP positive nuclei fraction” value in the assay on SkMel30 was 80.6%; with SkMel5 it was 61.8%; with UACC257 it was 57.5%; in the assay on UACC62, 70.6%.

For `OCc1c[nH]c2ccccc12` [Indole-3-carbinol] + CC(C)CCN1c2nc(Nc3cc(F)c(O)c(F)c3)ncc2N(C)C(=O)C1C [BID1870] (first compound 0.8 µM, partner dose 0.2 µM), the “cleaved PARP positive nuclei fraction” value in the assay with MZ2-MEL is 28.5%; in the assay with MeWo, 139%; with RPMI7951 it was 114%; in the assay on RVH-421, 218%; in the assay with SkMel28, 132%; in the assay on SkMel2, 27.7%. Moreover, the “cleaved PARP positive nuclei fraction” value with SkMel30 amounted to 344%; in the assay with SkMel5 it was 75.5%; in the assay on UACC257, 89.3%; in the assay with UACC62 it was 76.9%.

For the molecule `C=CCNC1=C2C[C@@H](C)C[C@H](OC)[C@H](O)[C@@H](C)/C=C(\C)[C@H](OC(N)=O)[C@@H](OC)/C=C\C=C(/C)C(=O)NC(=CC1=O)C2=O` [Tanespimycin] + CC1(C)NC(=O)N(c2ccc([N+](=O)[O-])c(C(F)(F)F)c2)C1=O [nilutamide] (first compound 0.002 µM, partner dose 1 µM), the “cleaved PARP positive nuclei fraction” value in the assay on MZ2-MEL was found to be 54.4%; in the assay on MeWo it was 79.7%; in the assay on RPMI7951, 41.7%; with RVH-421 it was 59.5%; in the assay on SkMel28, 148%; with SkMel2, 45.5%. For the same molecule, the “cleaved PARP positive nuclei fraction” value in the assay on SkMel30 is 58.4%; in the assay with SkMel5, 79.6%; in the assay with UACC257 it was 190%; in the assay with UACC62, 61.2%.

For the molecule `Cc1cc(N2CCOCC2)cc2[nH]c(-c3c(NC[C@@H](O)c4cccc(Cl)c4)cc[nH]c3=O)nc12` + C[C@@H]1CCN(C(=O)CC#N)C[C@@H]1N(C)c1ncnc2[nH]ccc12 [CP690550] (first compound 0.2 µM, partner dose 1 µM), the “cleaved PARP positive nuclei fraction” value in the assay with MZ2-MEL amounted to 128%; in the assay with MeWo, 50.2%; with RPMI7951 it was 126%; in the assay on RVH-421, 138%; with SkMel28 it was 108%; with SkMel2, 36.6%. Also, the “cleaved PARP positive nuclei fraction” value with SkMel30 is 71.1%; in the assay on SkMel5, 128%; in the assay with UACC257, 121%; in the assay on UACC62, 66.9%.

Values taken from the supplement of paper PMC4604168 (melanoma cell lines).
